# Reference: PubChem BioAssay AID504774 (Drosophila RNAi Screening Center, 2011)
# Screen: 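Fly genes whose loss alters survival after alkylation damage to DNA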 (primary screen)
# System: Drosophila Kc167 cells
# Reagent: long dsRNA against Drosophila genes, about 0.25 µg dsRNA per well
# Time to read-out: about 6 days: 3 days knock-down, then 3 days with or without MMS
# Conditions: methyl methanesulphonate 0.004% (w/v) for 3 days after knock-down
# Measured: 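Viability in wells given MMS, read as ATP luminescence, normalised by quantiles plate by plate and averaged across replicates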
# Reading the numbers: mean viability with MMS and viability with MMS: higher = more surviving cells after MMS
# In all, the deposit lists about 23,000 reagents; shown is an unselected part of those that have a named target and a result. 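Values are quantile-normalised luminescence on an arbitrary scale; higher means more cells surviving MMS.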 The numbers tell different reagents against one gene apart.
target,reagent no.,mean viability with MMS,"viability with MMS, replicate 1","viability with MMS, replicate 2"
NC2beta (Negative Cofactor 2beta),1,3.71e6,4.31e6,4.16e6
CG13282,1,3.50e6,3.96e6,3.98e6
CG14636,1,3.57e6,4.11e6,3.99e6
Adgf-A (Adenosine deaminase-related growth factor A),1,3.70e6,4.09e6,4.23e6
bonsai,1,3.54e6,3.89e6,4.15e6
fos28F (retired record),1,3.72e6,4.31e6,4.11e6
Oatp74D (Organic anion transporting polypeptide 74D),1,3.76e6,3.95e6,4.50e6
Oatp74D (Organic anion transporting polypeptide 74D),2,3.61e6,4.03e6,4.14e6
Sod2 (Superoxide dismutase 2 (Mn)),1,3.54e6,3.96e6,4.06e6
CG5888,1,3.64e6,3.93e6,4.37e6
GIIIspla2 (Phospholipase A2 group III),1,3.57e6,3.89e6,4.13e6
CG13613,1,3.55e6,4.06e6,3.99e6
Atac2 (Ada2a-containing complex component 2),1,3.61e6,4.23e6,3.99e6
Mal-A5 (Maltase A5),1,3.58e6,4.06e6,4.06e6
gbb (glass bottom boat),1,3.42e6,3.89e6,3.85e6
CG7766,1,3.38e6,4.12e6,4.24e6
PIP5K59B (Phosphatidylinositol 4-phosphate 5-kinase 59B),1,3.50e6,3.70e6,4.21e6
PIP5K59B (Phosphatidylinositol 4-phosphate 5-kinase 59B),2,3.63e6,4.17e6,4.07e6
Noc3 (Nucleolar complex protein 3),1,3.41e6,3.90e6,3.79e6
Ser8,1,3.58e6,4.07e6,3.90e6
Reck (Reversion-inducing-cysteine-rich protein with kazal motifs),1,3.74e6,4.17e6,4.22e6
Reck (Reversion-inducing-cysteine-rich protein with kazal motifs),2,3.56e6,4.07e6,4.00e6
iPLA2-VIA (calcium-independent phospholipase A2 VIA),1,3.41e6,3.90e6,3.85e6
hth (homothorax),1,3.64e6,4.02e6,4.16e6
Ote (Otefin),1,3.61e6,4.10e6,4.11e6
Pgant5 (Polypeptide N-Acetylgalactosaminyltransferase 5),1,3.53e6,4.02e6,3.98e6
CG18262,1,3.62e6,3.80e6,4.41e6
ci (cubitus interruptus),1,3.68e6,4.33e6,4.00e6
CG14424,1,3.45e6,4.00e6,3.82e6
Takl1 (Tak1-like 1),1,3.44e6,3.89e6,3.91e6
l(3)mbn (lethal (3) malignant blood neoplasm),1,3.51e6,4.06e6,3.90e6
kmg (kumgang),1,3.66e6,4.09e6,4.16e6
Ubc6 (Ubiquitin conjugating enzyme 6),1,3.50e6,3.93e6,3.98e6
Zasp66 (Z band alternatively spliced PDZ-motif protein 66),1,3.57e6,4.13e6,3.94e6
Zasp66 (Z band alternatively spliced PDZ-motif protein 66),2,3.62e6,4.00e6,4.22e6
Zasp66 (Z band alternatively spliced PDZ-motif protein 66),3,3.70e6,4.17e6,4.22e6
CG4497,1,3.62e6,4.06e6,4.18e6
CG11837,1,3.36e6,3.80e6,3.84e6
cert (ceramide transfer protein),1,3.66e6,4.24e6,4.07e6
Gp150,1,3.37e6,3.87e6,3.91e6
CG6610,1,3.66e6,4.30e6,4.01e6
skd (skuld),1,3.40e6,3.81e6,3.84e6
Ir94e (Ionotropic receptor 94e),1,3.61e6,4.08e6,3.97e6
cutlet,1,3.58e6,4.03e6,4.09e6
CG15439,1,1.66e6,3.85e6,3.80e6
MESR4 (Misexpression suppressor of ras 4),1,3.09e6,3.57e6,3.62e6

Ordered by “mean viability with MMS” (descending): some entries from above.
target,reagent no.,mean viability with MMS,"viability with MMS, replicate 1","viability with MMS, replicate 2"
Zasp66 (Z band alternatively spliced PDZ-motif protein 66),3,3.70e6,4.17e6,4.22e6
kmg (kumgang),1,3.66e6,4.09e6,4.16e6
Zasp66 (Z band alternatively spliced PDZ-motif protein 66),2,3.62e6,4.00e6,4.22e6
CG4497,1,3.62e6,4.06e6,4.18e6
Zasp66 (Z band alternatively spliced PDZ-motif protein 66),1,3.57e6,4.13e6,3.94e6
l(3)mbn (lethal (3) malignant blood neoplasm),1,3.51e6,4.06e6,3.90e6
Ubc6 (Ubiquitin conjugating enzyme 6),1,3.50e6,3.93e6,3.98e6
